Measured values reported in the supplement of paper PMC6445147.
Single values of this data set are uncertain.

B1: human tRNA-Pro; a variant is named by its letters at N, in order (parent)
chain: GGCTCGTTGGTCTAGNGGTATGATTCTCGCTTAGGGTGCGAGAGGTCCCGGGTTCNNATCCCGGACGAGCCC

Variants of: B1
Assay: tRNA 3' processing efficiency (processed reads / all reads, maximum-likelihood estimate) (fraction); higher = more efficient 3' processing
Settings: HEK293T; construct: no Pol-II promoter ((-)CMV library)

Variant | tRNA 3' processing efficiency
GTA G9A A14T T59A | 0.25
GTA A14T G17C A20T A58G | 0.25
GTA A14T G50A T59C | 0.25
GTC G9A A14G A58T T59C | 0.22
GTA G15T G17C A58T | 0.4
TTA T19A A20C | 0.25
CTA G34A A58G | 0.2
GTA G15A G18T T19A T54A | 0.5
GGG T8C G18A | 0.08
ATA A14T G17A T19G A58T | 0.33
TTG T19C | 0.14
CGG A58G | 0.5
AGT T19G | 0.43
GTC T8A G17C A20G | 0.25
TTC T19G T59C | 0.5
TTA A20T T59A | 0.67
GTA T19G A20C A58G | 0.33
GGG A14G G15C G18A | 0.4
GTA T8G T19G A58T | 0.4
GTA G9T A14G G15T T19A | 0.25
TGG G15C C55G | 0.5
ATA A14C T19C | 0.4
TTA A14G A58T | 0.5
ATA G17T A20T | 0.43

Variant | tRNA 3' processing efficiency
CTA T19C A20T A58C | 0.21
CTA C3T A14G A20G | 0.25
ATA T8C T19G | 0.2
GTA A14G A20G A58C T59C | 0.62
GTA G15T G17C A20T A58G | 0.25
GTA A14C G34A | 0.4
GTA T19A T53A A58C | 0.2
GTA T19A T53A A58G | 0.42
GTA G1T G2T C3T A58G | 0.25
CTA T19C G45T A58C | 0.85
GTG T8C T19A T59G | 0.33
GTA T19A A20T A58G T59G | 0.45
GTA G9A T53A | 0.25
TTA A58T T59A | 0.17
TTA A58T T59G | 0.07
GGG G9A G15A | 0.25
GTA T8C T19C T59G | 0.2
GTA G15C G17T A58T | 0.33
GTG A14T G17T T59A | 0.5
ATA T8C A58G T59C | 0.25
GTA T8A A14G G17T | 0.25
CTA T8C A20G A58G | 0.25
GGG T8C A58T | 0.29
ATA T19G A58T | 0.17

Variant | tRNA 3' processing efficiency
GTA T19G A58C T59G | 0.25
GTA A20T G36A | 0.25
CTA A33T A58G | 0.73
TTA A14G G15A | 0.5
GTT A14C G15T G17C | 0.5
GTA A14C G18A T59G | 0.4
TTA G15C G17C | 0.23
GTG A14T T19A | 0.4
ATC G9A | 0.27
CTA G18T A58G | 0.25
GGT G9A A14C G17C | 0.62
GTA T8C T19A A58G | 0.13
GTA T8C T19A A58T | 0.25
TGG A20T | 0.25
GTA A14T G15T G18T | 0.4
ATA T19G T53G A58G | 0.56
GTA A20G A58G T59G | 0.55
GGT A14C T19A | 0.2
TTA A14T T59G | 0.2
ATA T8C T19G A58C | 0.5
GTA A14G G17C T53G A58G | 0.17
GTA G18A T19C A58C | 0.57
CTA A14T A20T | 0.31
GTA T11A A58G | 0.08

Seven records picked at random from those above:
Variant | tRNA 3' processing efficiency
ATA T8C T19G A58C | 0.5
CTA A33T A58G | 0.73
GTA A14T G15T G18T | 0.4
GTA T8C T19A A58G | 0.13
GTA T11A A58G | 0.08
GTG A14T T19A | 0.4
GTA T8C T19A A58T | 0.25

Further entries.

Variant | tRNA 3' processing efficiency
TTG T59C | 0.4
ATA G15T A58C | 0.17
TTA T19C A58T | 0.25
TTA T19C A58C | 0.2
GTA A14G T19A A20G | 0.25
TTA T53A A58C | 0.25
GTG G18A A20T | 0.2
GTA G15C G17T T53A | 0.25
GTA A14C G17C T19G T59G | 0.29
GTG A14G T19G A58G | 0.4
GTA G15A T19A A58G T59G | 0.17
GTA T19A C55G A58G | 0.33
CTG A14G T59C | 0.08
GGG G15T G18C T59G | 0.13
GTA G17T G18C A58T | 0.7
TGG T8C | 0.25
CTA G9A T19A T59A | 0.07
GTA G18C A20T A58T | 0.2
GTA G17T A20C A58T | 0.25
GTA G9A A14G A58G | 0.52
AGT G15C | 0.04
ATA A20T T53A T59C | 0.25
GTA T8C A14T G18T T19A A58T | 0.4
GGG G15A T54A | 0.4

Variant | tRNA 3' processing efficiency
GGG G15T T59A | 0.38
GGG T19C T59C | 0.7
TGG G15T G35A C55T A58C | 0.4
GTA G15A T59A | 0.56
CGG T8C G18A T19C | 0.31
GTA T19A A33G | 0.4
CTA T8G G17A A20C T59A | 0.25
GTA T8G A14G G15T | 0.83
TTA G15C A58C T59A | 0.17
GGG G15T G17A T53A | 0.2
GTG T19A A20T | 0.25
TGT G15A | 0.67
TTC A20G T59G | 0.25
ATA G9A T19G A58T | 0.19
CTA A14T A58G | 0.4
ATA A14G A58C | 0.45
GTG T19C A20C | 0.25
GTG A14C G17A T19G | 0.33
CTC G51A | 0.4
GTA G15A G18A T19G | 0.25
GTA G15C G18A A20T | 0.33
GTA G9A T19A A58C | 0.2
GTA A14C G17A T59G | 0.4
GGG G18A A20T | 0.17

Variant | tRNA 3' processing efficiency
GTC A14T T19A A20G | 0.33
GTG T19C A20G A58C | 0.29
GTA T19C T59G | 0.17
TGG A20T A58T | 0.62
GGG T8C G9A T19A A58C | 0.4
ATC A58T | 0.4
GTA G17A G18A T19A | 0.25
GTA A14T G17A G18C T19A T59G | 0.43
GTA G50A T53A | 0.4
GGG C3T T4G G6T A20T | 0.25
GTA A14T T19A T59C | 0.25
CTA T19C A58C | 0.26
CTA T19G A58G | 0.5
ATG G17T | 0.4
GTC G9A G18T | 0.57
ATG A58G T59A | 0.86
GTA A14G G15T G18A T19G A58T | 0.4
TGG T59G | 0.4
CTA T8G T19A A58G | 0.43
ATA T19C C55T | 0.25
GTA G9T T19G A58T T59C | 0.25
TTA T8G G15C | 0.17
GTA G6A T8A A58C | 0.33
GGT T8C G9T A14C | 0.56

Variant | tRNA 3' processing efficiency
GGT T19C A20C T59A | 0.2
TGG G18C T19C A20T A33T | 0.2
CGT T19A T54A | 0.3
GGG T8A G9A G17A G18A A20C | 0.25
GTA G9A T19A A20G | 0.38
GTA T8G G15C A58G T59G | 0.3
GTA T8A G15T G17T A58G | 0.62
GTA G15A T19A A20G A58G | 0.25
ATA G9T T19C A20T | 0.27
GTA T53A A58G T59G | 0.4
GTA G15A T19A T59C | 0.25
GTA T8G G9T G17A T59G | 0.4
AGG T8G A14T T19A | 0.2
CTA G18A T19C A58C | 0.5
TTA T19A A20C T59A | 0.2
GTA T8C A20T T59C | 0.25
GTA T8C T19A G35A A58C | 0.2
GTC T19C T59C | 0.25
ATA T19C A58C | 0.7
ATA T19C A58T | 0.2
GTA A14T G15C A58G | 0.64
CTA A14C T19G | 0.33

Variants of: B1
Assay: tRNA 5' processing efficiency (processed reads / all reads, maximum-likelihood estimate) (fraction); higher = more efficient 5' processing
Settings: HEK293T; construct: CMV Pol-II promoter ((+)CMV library, decapped)

Variant | tRNA 5' processing efficiency
TGT G15A | 0.17
